This is an account of results in paper PMC9635984 (Bioorganic & medicinal chemistry letters, 2022).

Type in all cases: cell-based
The test system of assay [1] is human umbilical vein endothelial cells (HUVEC). As to the kind of experiment: In vitro cytotoxicity assay on HUVEC. To be noted: read-out: IC50 (μM) HUVEC.
For assay [2], the system named is MDA-MB-231 breast cancer cells. Nature of the assay: In vitro antitumor activity against breast cancer cell line MDA-MB-231. As to conditions: Homo sapiens, MDA-MB-231, read-out: IC50 (μM) MDA-MB-231, MDA-MB-231 breast cancer cell line.
Assay [3] has as its system Hela human cervical cancer cells. Nature of the assay: In vitro antitumor activity against cervical cancer cell line HeLa. As to conditions: read-out: IC50 (μM) Hela.

Each structure is given as a SMILES string.

In the case of `O=C(CCCCCCC(=O)Nc1ccccc1)NO` [SAHA, vorinostat], the concentration for half-maximal inhibition (IC50) turned out to be 26.4 µM in assay [1], 3.52 µM in assay [2] and 4.52 µM in assay [3].
